These are literature values, as cited in patent publication US7605257B2, “Processes for preparing water-soluble polyethylene glycol conjugates of macrolide immunosuppressants” (Wyeth, priority 2006, dated 2009).

In the case of `CO[C@H]1C[C@@H]2CC[C@@H](C)[C@@](O)(O2)C(=O)C(=O)N2CCCC[C@H]2C(=O)O[C@H]([C@H](C)C[C@@H]2CC[C@@H](O)[C@H](OC)C2)CC(=O)[C@H](C)/C=C(\C)[C@@H](O)[C@@H](OC)C(=O)[C@H](C)C[C@H](C)/C=C/C=C/C=C/1C` [Rapamycin, rapamycin], the solubility in water entry is given as “about 2.6 μg/mL”. In the case of `C=CC[C@@H]1/C=C(\C)C[C@H](C)C[C@H](OC)[C@H]2O[C@@](O)(C(=O)C(=O)N3CCCC[C@H]3C(=O)O[C@H](/C(C)=C/[C@@H]3CC[C@@H](O)[C@H](OC)C3)[C@H](C)[C@@H](O)CC1=O)[C@H](C)C[C@@H]2OC.O` [tacrolimus], the solubility in water is 12 µg/mL.
